PMC10454150, “Molecular Mechanism of a FRET Biosensor for the Cardiac Ryanodine Receptor Pathologically Leaky State” (International Journal of Molecular Sciences, 2023)
No constants are given. Whether binding was seen depends on the method and setting. Binding seen in cells or lysates may run through a third protein. Some binding calls cover weakened binding; strength is not graded here.

Biological target: type 2 ryanodine receptor (RyR2) channel in cardiac SR membranes (pig (endogenous in porcine heart SR))
Assay: FRET or BRET; as a1, 30 nM Ca2+, SR pre-treated with 50 uM unlabeled DPc10 for 60 min; apparent affinity; only the binder purified

binding: binds
B1: DPc10 peptide, unlabeled (peptide)
peptide: GFCPDHKAAMVLFLDRVYGIEVQDFLLHLLEVGFLP
